{"source": "PubChem BioAssay AID248", "about": "(DTP/NCI, 2004)", "system": "L1210 leukemia ip in BDF1 mice, survival T/C", "test": "NCI In Vivo Anticancer Drug Screen. Data for tumor model L1210 Leukemia (intraperitoneal) in B6D2F1 (BDF1) mice", "settings": "T/C endpoint: mean survival time, higher T/C = longer survival", "note": "The list shows only some results of the screen, not a fair sample: it gathers tests that were run many times, whatever their T/C, doses with no T/C, and many T/C values between a quarter and a half above the control. Further doses and runs are listed elsewhere. T/C: endpoint of the treated group in % of that of the vehicle group. Some doses have a count of surviving animals in place of a T/C: the source files T/C as zero there, which appears to mark a toxic dose or a test without result, not a measured value. Some survivor counts are full or nearly so, which does not show that the dose was tolerated: the source hardly ever lists a survival T/C far under the control, and the zero likely stands for such cases as well. Survivors were counted at the toxicity check, usually on the fifth day, unless a day is given; later deaths do not show. Schedule codes are those of the source, taken here to give the interval after Q, in days (D) or hours (H), and the number of doses after X. Some schedules carry Z or #; the key to these is not given. Where survival is the endpoint, this PubChem deposit counts one and a half times the control or more as active, and values a quarter to a half above the control carry no call in these data; other NCI protocols may use other cut-offs. Some doses were run more than once; their values stand side by side, smallest first. Counts like (3×) say how often a value occurs here. Some T/C values carry the count of animals alive at the toxicity check (mostly the fifth day); where none is given, no animal had died by that day."}
{"smiles": "CN(Cc1cnc2nc(N)nc(N)c2n1)c1c(Cl)cc(C(=O)NC(CCC(=O)O)C(=O)O)cc1Cl", "note": "(configuration not stated)", "values": [{"measurement": "T/C", "setting": "dose: 0.25 mg/kg/injection, schedule: Q01DX Z (ip), vehicle: saline", "value": "136 % of control"}, {"measurement": "T/C", "setting": "dose: 0.8 mg/kg/injection, schedule: Q03HX024 (ip), vehicle: alkali diluted with saline", "value": "135 % of control [9 of 10 alive]"}, {"measurement": "T/C", "setting": "dose: 1.0 mg/kg/injection, schedule: Q01DX Z (ip), vehicle: saline", "value": "148 % of control"}, {"measurement": "survivor count", "setting": "dose: 1.0 mg/kg/injection, schedule: Q01DX Z (oral), vehicle: alkali diluted with saline", "value": "6 of 7"}, {"measurement": "T/C", "setting": "dose: 1.25 mg/kg/injection, schedule: Q03HX008 (ip), vehicle: carboxymethylcellulose (CMC)", "value": "125 % of control [8 of 10 alive]"}, {"measurement": "T/C", "setting": "dose: 1.5 mg/kg/injection, schedule: Q01DX Z (ip), vehicle: carboxymethylcellulose (CMC)", "value": "147 % of control"}, {"measurement": "T/C", "setting": "dose: 1.56 mg/kg/injection, schedule: Q03HX024 (ip), vehicle: carboxymethylcellulose (CMC)", "value": "139 % of control [9 of 10 alive]"}, {"measurement": "T/C", "setting": "dose: 3.0 mg/kg/injection, schedule: Q01DX Z (ip), vehicle: saline", "value": "127 % of control"}, {"measurement": "survivor count", "setting": "dose: 3.13 mg/kg/injection, schedule: Q03HX024 (ip), vehicle: carboxymethylcellulose (CMC)", "value": "5 of 10"}, {"measurement": "T/C", "setting": "dose: 3.75 mg/kg/injection, schedule: Q03HX008 (ip), vehicle: carboxymethylcellulose (CMC)", "value": "128 % of control"}, {"measurement": "T/C", "setting": "dose: 5.0 mg/kg/injection, schedule: Q#A X Z (ip), vehicle: olive oil, sesame oil, peanut oil", "value": "141 % of control [5 of 6 alive]"}, {"measurement": "T/C", "setting": "dose: 7.5 mg/kg/injection, schedule: Q03HX008 (ip), vehicle: carboxymethylcellulose (CMC)", "value": "132 % of control [7 of 10 alive]"}, {"measurement": "T/C", "setting": "dose: 9.0 mg/kg/injection, schedule: Q01DX Z (ip), vehicle: water", "value": "147 % of control"}, {"measurement": "T/C", "setting": "dose: 10.0 mg/kg/injection, schedule: Q01DX005 (ip), vehicle: carboxymethylcellulose (CMC)", "value": "131 % of control"}, {"measurement": "T/C", "setting": "dose: 10.0 mg/kg/injection, schedule: Q01DX005 (ip), vehicle: other", "value": "130 % of control"}, {"measurement": "T/C", "setting": "dose: 10.0 mg/kg/injection, schedule: Q01DX007 (ip), vehicle: other", "value": "148 % of control"}, {"measurement": "T/C", "setting": "dose: 10.0 mg/kg/injection, schedule: Q01DX007 (sc), vehicle: other", "value": "126 % of control"}, {"measurement": "T/C", "setting": "dose: 10.0 mg/kg/injection, schedule: Q01DX009 (ip), vehicle: carboxymethylcellulose (CMC)", "value": "130 % of control"}, {"measurement": "T/C", "setting": "dose: 10.0 mg/kg/injection, schedule: Q01DX009 (ip), vehicle: saline", "value": "140, 146, 167, 177 % of control"}, {"measurement": "T/C", "setting": "dose: 10.0 mg/kg/injection, schedule: Q01DX009 (sc), vehicle: carboxymethylcellulose (CMC)", "value": "126 % of control"}, {"measurement": "survivor count", "setting": "dose: 10.0 mg/kg/injection, schedule: Q#A X Z (ip), vehicle: methylcellulose (MC)", "value": "6 of 6"}, {"measurement": "survivor count", "setting": "dose: 12.8 mg/kg/injection, schedule: Q03HX024 (ip), vehicle: alkali diluted with saline", "value": "8 of 10"}, {"measurement": "survivor count", "setting": "dose: 15.0 mg/kg/injection, schedule: Q03HX008 (ip), vehicle: carboxymethylcellulose (CMC)", "value": "6 of 10"}, {"measurement": "T/C", "setting": "dose: 20.0 mg/kg/injection, schedule: Q01DX005 (ip), vehicle: carboxymethylcellulose (CMC)", "value": "134 % of control"}, {"measurement": "T/C", "setting": "dose: 20.0 mg/kg/injection, schedule: Q01DX005 (ip), vehicle: other", "value": "134 % of control"}, {"measurement": "T/C", "setting": "dose: 20.0 mg/kg/injection, schedule: Q01DX007 (sc), vehicle: other", "value": "128 % of control"}, {"measurement": "T/C", "setting": "dose: 20.0 mg/kg/injection, schedule: Q01DX009 (ip), vehicle: saline", "value": "154 (2×), 162, 173 % of control"}, {"measurement": "T/C", "setting": "dose: 20.0 mg/kg/injection, schedule: Q01DX009 (sc), vehicle: carboxymethylcellulose (CMC)", "value": "136 % of control"}, {"measurement": "T/C", "setting": "dose: 30.0 mg/kg/injection, schedule: Q## X008 (ip), vehicle: alkali diluted with saline", "value": "126 % of control [8 of 10 alive]"}, {"measurement": "T/C", "setting": "dose: 30.0 mg/kg/injection, schedule: Q#A X Z (ip), vehicle: olive oil, sesame oil, peanut oil", "value": "131 % of control"}, {"measurement": "T/C", "setting": "dose: 40.0 mg/kg/injection, schedule: Q01DX005 (ip), vehicle: carboxymethylcellulose (CMC)", "value": "135 % of control"}, {"measurement": "T/C", "setting": "dose: 40.0 mg/kg/injection, schedule: Q01DX005 (ip), vehicle: other", "value": "134 % of control"}, {"measurement": "T/C", "setting": "dose: 40.0 mg/kg/injection, schedule: Q01DX006 (iv), vehicle: alkali diluted with saline", "value": "141 % of control [6 of 7 alive]"}, {"measurement": "T/C", "setting": "dose: 40.0 mg/kg/injection, schedule: Q01DX007 (sc), vehicle: other", "value": "135 % of control"}, {"measurement": "T/C", "setting": "dose: 40.0 mg/kg/injection, schedule: Q01DX009 (ip), vehicle: saline", "value": "164 (3×) and 173 % of control"}, {"measurement": "survivor count", "setting": "dose: 40.0 mg/kg/injection, schedule: Q#A X Z (ip), vehicle: methylcellulose (MC)", "value": "5 of 6"}, {"measurement": "T/C", "setting": "dose: 45.0 mg/kg/injection, schedule: Q01DX Z (ip), vehicle: carboxymethylcellulose (CMC)", "value": "127 % of control"}, {"measurement": "T/C", "setting": "dose: 50.0 mg/kg/injection, schedule: Q04DX003 (ip), vehicle: carboxymethylcellulose (CMC)", "value": "129 % of control"}, {"measurement": "T/C", "setting": "dose: 60.0 mg/kg/injection, schedule: Q03DX Z (ip), vehicle: methylcellulose (MC)", "value": "129 % of control"}, {"measurement": "T/C", "setting": "dose: 60.0 mg/kg/injection, schedule: Q## X008 (ip), vehicle: alkali diluted with saline", "value": "129 % of control"}, {"measurement": "T/C", "setting": "dose: 80.0 mg/kg/injection, schedule: Q01DX005 (ip), vehicle: other", "value": "145 % of control"}, {"measurement": "T/C", "setting": "dose: 80.0 mg/kg/injection, schedule: Q01DX009 (ip), vehicle: saline", "value": "186, 197, 205, 230 % of control"}]}
